PubChem BioAssay AID1259254, NCATS – 2017

- Assay: 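Gene knock-downs that lead to re-replication, shown by excess G2 DNA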 (primary screen)
- System: human HCT116 colorectal cancer cells
- Reagent: single siRNA against human genes
- Time to read-out: 3 days
- Detection: 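Nuclei stained with Hoechst and imaged; cell-cycle phase assigned by DNA content; G2 share scaled per plate, non-targeting siRNA 0%, GMNN siRNA 100%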
- Scale: G2 robust z-score and G2 cells, % of GMNN control: higher = more G2 cells, more excess DNA replication
- Rule for the call: 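An siRNA counts as active if its G2 robust z-score lies at least 5 MADs above the screen median; here such calls match roughly 38% of GMNN control or more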
In all, the deposit lists about 59,000 reagents; below is a part drawn at random. About 1,550 of them (2.6%) count as active. 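G2 share is only a proxy for re-replication; each gene was hit by three separate siRNAs, and active genes were retested.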 A number with no mark means an inactive call. Reagents against one gene are numbered here. Not all columns of the deposit are shown. No sequences are given here. The record does not give: the amount of reagent.

The opening 9 records, to show the layout:
| gene symbol | reagent no. | G2 robust z-score | G2 cells, % of GMNN control |
| --- | --- | --- | --- |
| ABCB11 (GeneID 8647) | 1 | 0.268 | 4.85 |
| ABCB11 (GeneID 8647) | 2 | -0.447 | -0.175 |
| ABCB11 (GeneID 8647) | 3 | -1.12 | -4.94 |
| METTL23 (GeneID 124512) | 1 | 0.456 | 6.18 |
| METTL23 (GeneID 124512) | 2 | -0.579 | -1.11 |
| METTL23 (GeneID 124512) | 3 | -0.778 | -2.51 |
| TMPO (GeneID 7112) | 1 | -0.277 | 1.02 |
| TMPO (GeneID 7112) | 2 | 1.86 | 16.1 |
| TMPO (GeneID 7112) | 3 | -0.138 | 2 |

The list itself, from the first entry:
| gene symbol | reagent no. | G2 robust z-score | G2 cells, % of GMNN control |
| --- | --- | --- | --- |
| ABCB11 (GeneID 8647) | 1 | 0.268 | 4.85 |
| ABCB11 (GeneID 8647) | 2 | -0.447 | -0.175 |
| ABCB11 (GeneID 8647) | 3 | -1.12 | -4.94 |
| METTL23 (GeneID 124512) | 1 | 0.456 | 6.18 |
| METTL23 (GeneID 124512) | 2 | -0.579 | -1.11 |
| METTL23 (GeneID 124512) | 3 | -0.778 | -2.51 |
| TMPO (GeneID 7112) | 1 | -0.277 | 1.02 |
| TMPO (GeneID 7112) | 2 | 1.86 | 16.1 |
| TMPO (GeneID 7112) | 3 | -0.138 | 2 |
| EHMT2 (GeneID 10919) | 1 | 0.175 | 4.2 |
| EHMT2 (GeneID 10919) | 2 | 0.126 | 3.85 |
| EHMT2 (GeneID 10919) | 3 | -0.442 | -0.145 |
| LIN9 (GeneID 286826) | 1 | 1.21 | 11.5 |
| LIN9 (GeneID 286826) | 2 | 4.45 | 34.3 |
| LIN9 (GeneID 286826) | 3 | 2.36 | 19.6 |
| GLIS1 (GeneID 148979) | 1 | 1.17 | 11.2 |
| GLIS1 (GeneID 148979) | 2 | -0.388 | 0.24 |
| GLIS1 (GeneID 148979) | 3 | 0.853 | 8.97 |
| CNMD (GeneID 11061) | 1 | -1.03 | -4.26 |
| CNMD (GeneID 11061) | 2 | 0.592 | 7.13 |
| CNMD (GeneID 11061) | 3 | -0.109 | 2.2 |
| TMEM171 (GeneID 134285) | 1 | 0.276 | 4.91 |
| TMEM171 (GeneID 134285) | 2 | -0.28 | 0.995 |
| TMEM171 (GeneID 134285) | 3 | -1.25 | -5.8 |
| OIP5 (GeneID 11339) | 1 | 7.37 (active) | 54.8 |
| OIP5 (GeneID 11339) | 2 | 0.0628 | 3.41 |
| OIP5 (GeneID 11339) | 3 | -0.216 | 1.45 |
| NPS (GeneID 594857) | 1 | -0.915 | -3.47 |
| NPS (GeneID 594857) | 2 | -0.481 | -0.42 |
| NPS (GeneID 594857) | 3 | -0.511 | -0.628 |
| TEX28 (GeneID 1527) | 1 | 0.964 | 9.75 |
| TEX28 (GeneID 1527) | 2 | 0.961 | 9.73 |
| TEX28 (GeneID 1527) | 3 | 2.16 | 18.2 |
| CARNMT1 (GeneID 138199) | 1 | -0.0947 | 2.3 |
| CARNMT1 (GeneID 138199) | 2 | 1.09 | 10.6 |
| CARNMT1 (GeneID 138199) | 3 | 1.71 | 15 |
| DOLPP1 (GeneID 57171) | 1 | -0.65 | -1.6 |
| DOLPP1 (GeneID 57171) | 2 | -1.22 | -5.6 |
| DOLPP1 (GeneID 57171) | 3 | -0.604 | -1.28 |
| KCNK16 (GeneID 83795) | 1 | 6.38 (active) | 47.8 |
| KCNK16 (GeneID 83795) | 2 | 2.15 | 18.1 |
| KCNK16 (GeneID 83795) | 3 | -1.32 | -6.34 |
| HENMT1 (GeneID 113802) | 1 | 0.68 | 7.75 |
| HENMT1 (GeneID 113802) | 2 | -0.31 | 0.79 |
| HENMT1 (GeneID 113802) | 3 | -0.838 | -2.93 |
| ATP6V0A4 (GeneID 50617) | 1 | 0.448 | 6.12 |
| ATP6V0A4 (GeneID 50617) | 2 | 0.701 | 7.9 |
| ATP6V0A4 (GeneID 50617) | 3 | -1.53 | -7.81 |
| MCMBP (GeneID 79892) | 1 | 0.00484 | 3 |
| MCMBP (GeneID 79892) | 2 | -0.616 | -1.37 |
| MCMBP (GeneID 79892) | 3 | 3.31 | 26.3 |
| MRPS5 (GeneID 64969) | 1 | 1.67 | 14.7 |
| MRPS5 (GeneID 64969) | 2 | -1.07 | -4.53 |
| MRPS5 (GeneID 64969) | 3 | -0.084 | 2.38 |
| DLGAP1-AS1 (GeneID 649446) | 1 | -0.146 | 1.94 |
| DLGAP1-AS1 (GeneID 649446) | 2 | 1.2 | 11.4 |
| DLGAP1-AS1 (GeneID 649446) | 3 | 1.23 | 11.6 |
| GTF2H5 (GeneID 404672) | 1 | 0.79 | 8.53 |
| GTF2H5 (GeneID 404672) | 2 | 0.14 | 3.95 |
| GTF2H5 (GeneID 404672) | 3 | -0.827 | -2.85 |
| AKR1C2 (GeneID 1646) | 1 | -0.836 | -2.92 |
| AKR1C2 (GeneID 1646) | 2 | 4.5 | 34.6 |
| AKR1C2 (GeneID 1646) | 3 | 1.41 | 12.9 |
| SULT1C4 (GeneID 27233) | 1 | -1.25 | -5.79 |
| SULT1C4 (GeneID 27233) | 2 | 0.826 | 8.78 |
| SULT1C4 (GeneID 27233) | 3 | -1.05 | -4.41 |
| MTM1 (GeneID 4534) | 1 | 3.29 | 26.1 |
| MTM1 (GeneID 4534) | 2 | -1.08 | -4.6 |
| MTM1 (GeneID 4534) | 3 | 2.14 | 18 |
| TTL (GeneID 150465) | 1 | 0.0575 | 3.37 |
| TTL (GeneID 150465) | 2 | 5.76 (active) | 43.5 |
| TTL (GeneID 150465) | 3 | 3.74 | 29.3 |
| PPP4C (GeneID 5531) | 1 | -1.18 | -5.35 |
| PPP4C (GeneID 5531) | 2 | -1.12 | -4.93 |
| PPP4C (GeneID 5531) | 3 | 0.794 | 8.56 |
| CROCC2 (GeneID 728763) | 1 | -0.649 | -1.6 |
| CROCC2 (GeneID 728763) | 2 | -1.38 | -6.71 |
| CROCC2 (GeneID 728763) | 3 | -0.47 | -0.336 |
| UPB1 (GeneID 51733) | 1 | 0.233 | 4.61 |
| UPB1 (GeneID 51733) | 2 | 3.23 | 25.7 |
| UPB1 (GeneID 51733) | 3 | -0.418 | 0.0277 |
| NDUFV1-DT (GeneID 100505621) | 1 | 1.17 | 11.2 |
| NDUFV1-DT (GeneID 100505621) | 2 | 0.0422 | 3.26 |
| NDUFV1-DT (GeneID 100505621) | 3 | 0.362 | 5.51 |
| MAPK4 (GeneID 5596) | 1 | 1.21 | 11.5 |
| MAPK4 (GeneID 5596) | 2 | 0.0592 | 3.38 |
| MAPK4 (GeneID 5596) | 3 | -0.0226 | 2.81 |
